Laboratory results: PubChem BioAssay AID504774 (Drosophila RNAi Screening Center, 2011)
The deposit covers about 23,000 reagents; this is a random part of those that have a named target and a result. 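Values are quantile-normalised luminescence on an arbitrary scale; higher means more cells surviving MMS.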 Names joined by + are all predicted targets of the reagent.

Screen: 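Genes required for cells to withstand methyl methanesulphonate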 (primary screen)
Cell system: Drosophila Kc167 cells
Reagent: long dsRNA against Drosophila genes, about 0.25 µg dsRNA per well
Time to read-out: about 6 days: 3 days knock-down, then 3 days with or without MMS
Challenge: methyl methanesulphonate 0.004% (w/v) for 3 days after knock-down
Measurement: 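ATP-dependent luminescence as a measure of live cells in MMS-exposed wells, quantile normalised within each plate, with replicate values also given as a mean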
Scale: mean viability with MMS and viability with MMS: higher = more surviving cells after MMS

The opening 2 entries, to show the layout:
| target | DRSC id | mean viability with MMS | viability with MMS, replicate 1 | viability with MMS, replicate 2 |
| --- | --- | --- | --- | --- |
| dimm | DRSC03100 | 3.49e6 | 3.91e6 | 3.98e6 |
| Or83a | DRSC12357 | 3.54e6 | 4.08e6 | 3.97e6 |

Main list, from the start:
| target | DRSC id | mean viability with MMS | viability with MMS, replicate 1 | viability with MMS, replicate 2 |
| --- | --- | --- | --- | --- |
| dimm | DRSC03100 | 3.49e6 | 3.91e6 | 3.98e6 |
| Or83a | DRSC12357 | 3.54e6 | 4.08e6 | 3.97e6 |
| cg | DRSC07650 | 2.25e6 | 2.77e6 | 2.89e6 |
| cg | DRSC23142 | 3.39e6 | 3.94e6 | 3.76e6 |
| CR11023 | DRSC00302 | 3.46e6 | 3.86e6 | 3.96e6 |
| Atg8b | DRSC14501 | 3.50e6 | 4.03e6 | 3.91e6 |
| ric8b + ric8a | DRSC18104 | 3.61e6 | 4.05e6 | 4.10e6 |
| TM9SF4 | DRSC01888 | 3.58e6 | 3.80e6 | 4.35e6 |
| TM9SF4 | DRSC02537 | 3.61e6 | 4.04e6 | 4.15e6 |
| CG3534 | DRSC15494 | 3.48e6 | 3.88e6 | 4.00e6 |
| Osi23 | DRSC15074 | 3.52e6 | 4.03e6 | 3.95e6 |
| Cpr47Ed | DRSC07331 | 3.57e6 | 4.01e6 | 4.06e6 |
| wntD | DRSC16423 | 3.50e6 | 4.02e6 | 3.93e6 |
| gdl-ORF39 + gdl | DRSC11350 | 3.47e6 | 3.92e6 | 3.91e6 |
| CG33464 (retired record) | DRSC22936 | 3.55e6 | 4.04e6 | 3.99e6 |
| feo | DRSC19398 | 1.79e6 | 4.02e6 | 3.92e6 |
| CG6813 | DRSC16122 | 3.57e6 | 4.09e6 | 4.00e6 |
| Proc | DRSC03009 | 2.72e6 | 3.47e6 | 3.42e6 |
| Proc | DRSC22998 | 3.62e6 | 4.06e6 | 4.17e6 |
| nAChRalpha3 | DRSC18800 | 3.41e6 | 3.96e6 | 3.76e6 |
| CG6465 | DRSC16046 | 3.56e6 | 4.05e6 | 4.04e6 |
| CG2129 | DRSC18209 | 3.48e6 | 3.90e6 | 4.02e6 |
| CG5001 | DRSC00673 | 3.57e6 | 4.00e6 | 4.11e6 |
| CG43338 | DRSC22055 | 3.80e6 | 4.35e6 | 4.14e6 |
| ArfGAP1 | DRSC11173 | 3.36e6 | 3.85e6 | 3.70e6 |
| CG12316 | DRSC09879 | 3.62e6 | 4.09e6 | 4.10e6 |
| Spn42Da | DRSC05025 | 3.65e6 | 4.13e6 | 4.07e6 |
| CG2519 | DRSC12312 | 3.53e6 | 4.06e6 | 3.94e6 |
